Data as given in PubChem BioAssay AID720591 (Broad Institute, 2013).
Out of some 1,200 compounds screened, about 60 (5%) were called active. Another 1% or so got no clear call; they are omitted.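 How the source made its calls: active means Decreasing signal and fitted IC50 at most twice the top valid tested dose; inconclusive means Bad fit or a level curve showing 30 to 70% inhibition; inactive means the rest.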 This is one part of the list. Measured potencies and affinities stand elsewhere.

Protein sequences, listed by entry. Tags and fused reporters are not part of them. Lines headed by an entry give the natural chain unless they say otherwise; changes in a name come on top.
UniProt Q9NXA8: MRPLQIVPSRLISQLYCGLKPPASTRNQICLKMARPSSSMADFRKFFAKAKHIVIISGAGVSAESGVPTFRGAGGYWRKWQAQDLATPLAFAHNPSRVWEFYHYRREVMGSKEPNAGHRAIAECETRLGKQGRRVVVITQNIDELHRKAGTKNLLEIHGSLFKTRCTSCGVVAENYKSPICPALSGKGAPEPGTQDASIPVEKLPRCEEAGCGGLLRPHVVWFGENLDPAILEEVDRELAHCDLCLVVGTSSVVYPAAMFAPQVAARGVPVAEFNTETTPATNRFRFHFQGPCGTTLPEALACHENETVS

The compounds below were run against NAD-dependent protein deacylase sirtuin-5, mitochondrial (Homo sapiens) (UniProt Q9NXA8) (assay: SIRT5 desuccinylase inhibitors, dose response, biochemical, fluorescence imaging, cherry-pick, set 5 (AID 720591;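 further: 0% = median of neutral control wells and -100% = median of positive control wells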)). Conditions: Purified SirT5, succinyl-peptide AMC, trypsin-coupled fluorescence; at 15 µM (top of the series).

SMILES	activity change, negative = inhibition
CN1CC(C(=O)c2ccc(Cl)cc2)C(c2ccccc2)C1 (stereo unspecified)	inactive: -9.11%
CCN(CC)C(=O)c1ccc(NC(=O)COc2ccccc2F)cc1	inactive: 2.2%
CCOC(=O)[C@]12Cc3cc4ccccc4cc3[C@H]1N(Cc1ccccc1)C(=O)c1ccccc12	inactive: 14.8%
CSCCC(c1nnnn1-c1ccc2c(c1)OCCO2)N1CCC(n2c(=O)[nH]c3ccccc32)CC1 (stereo unspecified)	inactive: 5.66%
COC(=O)C1=C(c2cccc(OCc3ccccc3)c2)C[C@@H]2CC[C@H]1N2C(=O)NCCCOC(C)C	inactive: -8.24%
CS(=O)(=O)c1ccc(C2=C(CNC(=O)c3cccs3)[C@H]3CC[C@@H](C2)N3CCOc2ccccc2)cc1	inactive: -32.4%
CC(=O)Nc1ccc(C(=O)C(Cc2ccccc2)N(C)C)cc1 (stereo unspecified)	inactive: -32.1%
CCN1C[C@]2(CO)CC[C@H](OC)[C@@]34C2[C@H](OC)[C@@](O)(C13)[C@@]1(O)C[C@H](OC)[C@H]2C[C@@H]4[C@@H]1[C@H]2OC	inactive: -16.9%
COc1cccc(CC(=O)N(C)C2CCCN(Cc3ccccc3F)C2)c1 (stereo unspecified)	inactive: 9.95%
O=C(NCC1=C(c2ccc3ccccc3c2)C[C@@H]2CC[C@H]1N2Cc1ccco1)c1ccncc1	inactive: -0.656%
Cc1ccc(OCCSC2=NN2c2cc(C)nc(N)n2)cc1	inactive: 9.78%
C[C@]12CCC3C(CC[C@H]4C[C@@H](O)CC[C@]34C)C1C[C@@H](Br)[C@@H]2O (stereo partly specified)	inactive: 19.3%
OCCNCCc1c[nH]c2ccc(OCc3ccccc3)cc12	inactive: -3.1%
CCCCN1CCC(C#N)(Nc2ccccc2)CC1	inactive: -24.2%
CCOC(=O)[C@]12Cc3c(cc(OC)c(OC)c3OC)[C@H]1N(C1CCCCC1)C(=O)c1ccccc12	inactive: 1.73%
COc1ccc(-n2c(-c3ccccc3Br)nc3ccccc3c2=O)cc1	inactive: -17%

Looked up by compound from the list above (2):
SMILES	activity change, negative = inhibition
CSCCC(c1nnnn1-c1ccc2c(c1)OCCO2)N1CCC(n2c(=O)[nH]c3ccccc32)CC1 (stereo unspecified)	inactive: 5.66%
Cc1ccc(OCCSC2=NN2c2cc(C)nc(N)n2)cc1	inactive: 9.78%
